According to publication PMC4863600:
No constants are given. Whether binding was seen depends on the method and setting. In cells and extracts the contact can be indirect. These calls come from enrichment with a bait or labelling near it, and not all partners need be listed. A no says only that the protein was not detected with the bait. Tags and fused reporters may be left off the sequences shown.

T1: PprA::HA fusion protein (D. radiodurans) (UniProt O32504)
T1 sequence: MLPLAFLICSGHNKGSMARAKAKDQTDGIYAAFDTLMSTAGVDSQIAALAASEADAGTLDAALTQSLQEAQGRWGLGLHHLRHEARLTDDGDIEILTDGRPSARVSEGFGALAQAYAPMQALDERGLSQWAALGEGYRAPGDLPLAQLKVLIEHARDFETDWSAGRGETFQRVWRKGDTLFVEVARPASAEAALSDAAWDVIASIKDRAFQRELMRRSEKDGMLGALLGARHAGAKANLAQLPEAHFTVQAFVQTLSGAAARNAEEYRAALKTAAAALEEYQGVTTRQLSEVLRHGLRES

B1: DNA gyrase subunit A (protein, UniProt Q9RT53 1-812)
chain: MTGIQPVDITSEVKTNFINYAMNVIVDRALPDVRDGMKPVQRRIMYAMLQEGLASNVKHAKSASVVGEVMKRYHPHGDSSIYDAMVRLGQWWNMRYTLVDPQGNFGSMDGDMAAAMRYTEARMTKVAEEILADLEKETVDLKPNYDETTTEPTVLPSAVPNLLINGASGIAVGMATNIPPHNLTEISNGLLALIDNPAITLDEMMTHVQGPDFPTGGRIAKVGIREAYATGHAGLKVRGKARIEEGKNGRTQIIISEIPYQLNKTNLLQTISAMYKAGKIPDIGALRDESDRKEPVRIVIELKRSAAGMGTLVLNQLYKYTQLQSSYTVMNLSIVNGEPRVLPLIDTMRYFLDHRRDVVTRRTVYDLRKAKERAHVLEGLLKALDHIDEVISLIRASNTGAEARDGLMARFGLSEIQAQAILDMRLQRLVGLEREKLQGEYDELQKTITRLESILGDEKLLWREIKKEIRDIRDRYGDARRSVITELEEDINKEDLIAVEDMVITMTRAGYVKRTNLTAYREQKRGGRGSSGGKLREEDANTGVFVGSTHDYLLFFTDQGRVFHEKIYDLPEAGRDAKGTHIRNLLPGLRDDENIASVLSVSGFDQPGSFIFATKSGVIKKSLITDYANITSAGLIAINLQPGDELIGVDIQQDGDDVVLATKNGQAMRFEATLVRDTGRATQGVIGIRLREGDEVVSMALVPGNDEEGELLAISECGLGKRTKVSDYPSKGRGGLGVITLDVTDKTGKLVTLAHVAGNEELMVLTEKGTVIRTRVEEVRVTGRNAQGVKVINIGDKDRVIDAFPIRKEDEL
B2: 30S ribosomal protein S1 (protein, UniProt Q9RSY6 1-629)
chain: MQHRYQARPGAFQREGFRPGGQEFMEDNTQTPAVNGGTQPTTGDTSTQQAEGTQLDQETQSHQGALNAQTEQAQTEVSQGEQARQQEQAAKTQAQEERDYPEMTMEDILAAEAQEPQSVTRGDIVDGTVVFIGQEGIAVDIGAKVEGVIPLNQLGEEPVTLEQAQEMYKPGDAIEAYVVRVDLPNSQIVLSKKRAEQDKGWRVLERMQEADEAFEVEVLEKVRGGLVAQVEGIRAFLPASQVDTRRVNDLDPYVGKPLMVKLIELNRKRNRVIISHRAIMEAEKAKAREATVGQLEPGAVFEGEVVEITDFGVFVNLGGIDGLVHRSELTYGRFNHPRDVVKVGDKVQVQVIDVDEGRERINLSMKALTQDPWEGATERYHIGQRVKGKVTNLTNFGAFIELEPGLEGLVHVSEMSWTKRVRHPNEVMKEGDEVEAVILRIDPRERRISLGIRQTTDDPWSALPDRYPPGTPVKGKITGMTDFGVFMEIEEGIEGLIHISELDTQRVNNPADLFKKGDEIEAVILNIDPVEQRASLSRRRFLGGGPVPQRGEGGQRDYVSQGGGSRRDSTFGGGQRGGRGGRGGADYAYNAKDAQQGGKISTKLGDVYADLFAQFGLGNDKKDEGSSEE
B3: Chaperonin groEL (protein, UniProt Q9RWQ9 1-548)
chain: MAKQLVFDESARRSLERGVNAVANAVKVTLGPRGRNVVIEKKFGSPTITKDGVTVAKEVELEDKLENIGAQLLKEVASKTNDITGDGTTTATVLGQAIVKEGLRNVAAGANPLALKRGIDKAVAVAIEEIKKLAVSVEDSEAIKKVAGISANDETVGQEIASAMDKVGKEGVITIEESKGFDTEVDVVEGMQFDKGFINPYFITNPEKMEAVLEDAYILINEKKISNLKDMLPVLEKVAQTGRPLLIIAEDVEGEALATLVVNKLRGTLNIAAVKAPGFGDRRKEMLRDIAAVTGGEVVSEDLGHKLENVGMEMLGRAARIRITKDETTIVDGKGEQAQIDARVNAIKGELDSTDSDYAREKLQERLAKLSGGVAVIRVGAATETELKEKKHRYEDALSTARSAVEEGIVAGGGTTLLRVIPAVRKAAESLTGDEATGARILIRALEEPARQIAANAGEEGSVIVNAVVGSDKARYGFNAATGEYVEDMVAAGIVDPAKVTRTALQNAASIGALILTTEAIVSDKPEKAAPAMPQGGGDMGGMGGMDF
B4: SSB (protein, UniProt Q9RY51 1-301)
chain: MARGMNHVYLIGALARDPELRYTGNGMAVFEATVAGEDRVIGNDGRERNLPWYHRVSILGKPAEWQAERNLKGGDAVVVEGTLEYRQWEAPEGGKRSAVNVKALRMEQLGTQPELIQDAGGGVRMSGAMNEVLVLGNVTRDPEIRYTPAGDAVLSLSIAVNENYQDRQGQRQEKVHYIDATLWRDLAENMKELRKGDPVMIMGRLVNEGWTDKDGNKRNSTRVEATRVEALARGAGNANSGYAAATPAAPRTQTASSAARPTSGGYQSQPSRAANTGSRSGGLDIDQGLDDFPPEEDDLPF
B5: DNA polymerase I (protein, UniProt P52027 1-956)
chain: MVFCGDGGLSCESIDFALCCLRGRSGNYVQSRILPMADASPDPSKPDTLVLIDGHALAFRSYFALPPLNNSKGEMTHAIVGFMKLLLRLARQKSNQVIVVFDPPVKTFRHEQYEGYKSGRAQTPEDLPGQINRIRALVDALGFPRLEEPGYEADDVIASLTRMAEGKGYEVRIVTSDRDAYQLLDEHVKVIANDFSLIGPAQVEEKYGVTVRQWVDYRALTGDASDNIPGAKGIGPKTAAKLLQEYGTLEKVYEAAHAGTLKPDGTRKKLLDSEENVKFSHDLSCMVTDLPLDIEFGVRRLPDNPLVTEDLLTELELHSLRPMILGLNGPEQDGHAPDDLLEREHAQTPEEDEAAALPAFSAPELAEWQTPAEGAVWGYVLSREDDLTAALLAAATFEDGVARPAPVSEPDEWAQAEAPENLFGELLPSDKPLTKKEQKALEKAQKDAEKARAKLREQFPATVDEAEFVGQRTVTAAAAKALAAHLSVRGTVVEPGDDPLLYAYLLDPANTNMPVVAKRYLDREWPADAPTRAAITGHLLRELPPLLDDARRKMYDEMEKPLSGVLGRMEVRGVQVDSDFLQTLSIQAGVRLADLESQIHEYAGEEFHIRSPKQLETVLYDKLELASSKKTKLTGQRSTAVSALEPLRDAHPIIPLVLEFRELDKLRGTYLDPIPNLVNPHTGRLHTTFAQTAVATGRLSSLNPNLQNIPIRSELGREIRKGFIAEDGFTLIAADYSQIELRLLAHIADDPLMQQAFVEGADIHRRTAAQVLGLDEATVDANQRRAAKTVNFGVLYGMSAHRLSNDLGIPYAEAATFIEIYFATYPGIRRYINHTLDFGRTHGYVETLYGRRRYVPGLSSRNRVQREAEERLAYNMPIQGTAADIMKLAMVQLDPQLDAIGARMLLQVHDELLIEAPLDKAEQVAALTKKVMENVVQLKVPLAVEVGTGPNWFDTK
B6: DnaK (protein, UniProt Q9RY23 1-628)
chain: MAKAVGIDLGTTNSVIAVMEGGRPEVIVNAEGGRTTPSVVAYKGDEILVGQIARRQAALNPAATLFEVKRFIGRRWDEVKEEAARSPFTVKEGPSGSVRIEVNGKDLAPEQVSAEVLRKLVSDASAKLGNKITDAVITVPAYFDNSQREATRQAGEIAGLNVLRVINEPTAAALAYGLERKGNETVLVFDLGGGTFDVTILELGDGVFEVKSTAGDTHLGGADFDYRIVDWLAGEFQKEHNFDLRKDKQALQRLIEAAEKAKIDLSNASETSISLPFITFDPETRTPMHLERSLSRAKFEELTADLLRRVRQPVEQALSDAKLSAGDINEVILVGGSTRIPAVKRIVQDLVGKTPNESVNPDEAVALGAAVQAGIIQGDSSLGDIVLVDVTPLTLGVEVKGGMIAPMITRNTTVPAKKTEIYTTAENNQPGVEINVLQGERPMAADNKSLGRFKLEGIPPMPAGRAQIEVTFDIDANGILHVTAKEKTSGKESSITIENTTTLDKTDVERMVQEAEQNAAADKQRKEKVEKRNNLDSLRVQAVQQLEEQEGAAQDAKDRLKAAADEAEEAVRSEDDSKIADAQKKLEEELRSFMTANQASTQGQPEGTQAQANKADDDVIDADFKPAE

Biological target: T1, PprA::HA fusion protein (D. radiodurans)
Assay: affinity purification with mass spectrometry; anti-HA immunoprecipitation (protein G magnetic beads) of PprA::HA from extracts of D. radiodurans GY14615 exposed to 3.8 kGy gamma radiation and recovered 110 min; lysis buffer A (50 mM Tris pH 7.5, 100 mM NaCl, 5 mM MgCl2, 1 mM DTT, 0.5% Triton X-100), 10°C; shotgun MS-MS; compared with nonirradiated cells and with irradiated ΔpprA cells

| Binder | binding |
| --- | --- |
| B1 | binds |
| B2 | binds |
| B3 | binds |
| B4 | no binding |
| B5 | no binding |
| B6 | no binding |
